Laboratory results taken from PubChem BioAssay AID330 (DTP/NCI, 2004).
The list is a part of this screen's results and no random one: it is rich in T/C values a quarter to a half above the control, in often repeated tests (any T/C) and in doses without a T/C. Other doses and runs of a compound stand elsewhere. T/C gives the treated animals as a percentage of the vehicle group. Some entries give survivors of the animals treated and no T/C: the source files T/C as zero there, which appears to mark a toxic dose or a test without result, not a measured value. Some doses without a T/C left all or most animals alive at the check, yet need not have been tolerated: survival well below the control is almost never listed, so the zero probably covers shortened survival too. Survivors were counted at the toxicity check, usually on the fifth day, unless a day is given; later deaths do not show. Schedule codes are those of the source, read here as Q, the interval in days (D) or hours (H), X, the number of doses. Some entries hold several experiments; their values stand side by side, smallest first. For survival time, this PubChem deposit counts one and a half times the control or more as active, and values a quarter to a half above the control carry no call in these data; other NCI protocols may use other cut-offs. Some T/C values are followed by the survivors on the day toxicity was checked, most often the fifth; without a count, all were alive then.

Test system: P388 leukemia ip, CD2F1 mice, survival T/C
Assay: NCI In Vivo Anticancer Drug Screen. Data for tumor model P388 Leukemia (intraperitoneal) in CD2F1 (CDF1) mice
Conditions: T/C endpoint: median survival time, higher T/C = longer survival
[1] = dose: 8.0 mg/kg/injection, schedule: Q04DX003 (ip), vehicle: water
[2] = dose: 32.0 mg/kg/injection, schedule: Q04DX003 (ip), vehicle: saline

COc1cccc2c1C(=O)c1c(O)c3c(c(O)c1C2=O)CC(O)(C(=O)CO)CC3OC1CC(N)C(O)C(C)O1 (stereo unspecified) was tested, and the T/C (dose: 0.08 mg/kg/injection, schedule: Q04DX003 (ip), vehicle: saline) was 128 % of control, the T/C (dose: 0.09 mg/kg/injection, schedule: Q01DX009 (ip), vehicle: water) was 127 % of control and the T/C (dose: 0.12 mg/kg/injection, schedule: Q04DX003 (ip), vehicle: saline) was 126 % of control. For the same compound, the T/C (dose: 0.18 mg/kg/injection, schedule: Q04DX003 (ip), vehicle: other) was 130 % of control, the T/C (dose: 0.18 mg/kg/injection, schedule: Q04DX003 (ip), vehicle: saline) was 131 % of control and the T/C (dose: 0.19 mg/kg/injection, schedule: Q01DX009 (ip), vehicle: water) was 136 % of control. The T/C (dose: 0.25 mg/kg/injection, schedule: Q04DX003 (ip), vehicle: distilled water + Tween-80) was 126 % of control, the T/C (dose: 0.27 mg/kg/injection, schedule: Q04DX003 (ip), vehicle: other) was 131 % of control and the T/C (dose: 0.27 mg/kg/injection, schedule: Q04DX003 (ip), vehicle: saline) was 136 % of control. The T/C (dose: 0.4 mg/kg/injection, schedule: Q04DX003 (ip), vehicle: other) was 141 % of control, the T/C (dose: 0.4 mg/kg/injection, schedule: Q04DX003 (ip), vehicle: saline) was 137 % of control and the T/C (dose: 0.5 mg/kg/injection, schedule: Q04DX003 (ip), vehicle: distilled water + Tween-80) was 126 % of control. For the same compound, the T/C (dose: 0.5 mg/kg/injection, schedule: Q04DX003 (ip), vehicle: water, evaluated on day 40) was 127 % of control, the T/C (dose: 0.5 mg/kg/injection, schedule: Q04DX003 (ip), vehicle: water, evaluated on day 50) was 135 % of control and the T/C (dose: 0.6 mg/kg/injection, schedule: Q04DX003 (ip), vehicle: other) was 144 % of control. The T/C (dose: 0.78 mg/kg/injection, schedule: Q04DX003 (ip), vehicle: saline) was 148 % of control, the T/C (dose: 0.9 mg/kg/injection, schedule: Q04DX003 (ip), vehicle: other) was 145 % of control and the T/C (dose: 0.9 mg/kg/injection, schedule: Q04DX003 (ip), vehicle: saline) was 147 % of control. For the same compound, the T/C (dose: 1.0 mg/kg/injection, schedule: Q04DX003 (ip), vehicle: distilled water + Tween-80) was 144 % of control, the T/C (dose: 1.0 mg/kg/injection, schedule: Q04DX003 (ip), vehicle: water, evaluated on day 40) was 127 % of control and the T/C (dose: 1.0 mg/kg/injection, schedule: Q04DX003 (ip), vehicle: water, evaluated on day 45) was 131 % of control [5 of 6 alive on day 9]. The T/C (dose: 1.0 mg/kg/injection, schedule: Q04DX003 (ip), vehicle: water, evaluated on day 50) was 131 % of control, the T/C (dose: 2.0 mg/kg/injection, schedule: Q04DX003 (ip), vehicle: distilled water + Tween-80) was 135 % of control and the T/C (dose: 2.0 mg/kg/injection, schedule: Q04DX003 (ip), vehicle: saline) was 135 % of control. For the same compound, the T/C (dose: 2.0 mg/kg/injection, schedule: Q04DX003 (ip), vehicle: water, evaluated on day 40) was 128 and 145 % of control, the T/C (dose: 2.0 mg/kg/injection, schedule: Q04DX003 (ip), vehicle: water, evaluated on day 45) was 141 % of control and the T/C (dose: 2.0 mg/kg/injection, schedule: Q04DX003 (ip), vehicle: water, evaluated on day 50) was 126 % of control. For the same compound, the T/C (dose: 2.9 mg/kg/injection, schedule: Q01DX009 (ip), vehicle: saline) was 141 % of control, the T/C (dose: 3.75 mg/kg/injection, schedule: Q04DX003 (ip), vehicle: clinical formulation) was 137 % of control and the T/C (dose: 4.0 mg/kg/injection, schedule: Q04DX003 (ip), vehicle: saline) was 126, 127 [5 of 6 alive], 147 % of control. For the same compound, the T/C (dose: 4.0 mg/kg/injection, schedule: Q04DX003 (ip), vehicle: water, evaluated on day 45) was 127 % of control, the T/C (dose: 4.0 mg/kg/injection, schedule: Q04DX003 (ip), vehicle: water, evaluated on day 50) was 128 % of control and the T/C (dose: 4.5 mg/kg/injection, schedule: Q04DX003 (ip), vehicle: water) was 125 and 128 % of control. For the same compound, the T/C (dose: 5.5 mg/kg/injection, schedule: Q04DX003 (ip), vehicle: water) was 138 % of control, the T/C (dose: 5.8 mg/kg/injection, schedule: Q01DX009 (ip), vehicle: saline) was 148 % of control and the survivor count (dose: 6.0 mg/kg/injection, schedule: Q01DX009 (ip), vehicle: water) was 8 of 8. For the same compound, the T/C (dose: 6.0 mg/kg/injection, schedule: Q04DX003 (ip), vehicle: water) was 125 and 130 % of control, the T/C (dose: 8.0 mg/kg/injection, schedule: Q04DX003 (ip), vehicle: other) was 127 % of control and the T/C (dose: 8.0 mg/kg/injection, schedule: Q04DX003 (ip), vehicle: saline) was 130 and 137 % of control. For the same compound, the T/C [1] was 132 % of control, the survivor count [1] was 2 of 6 on day 9 and the T/C (dose: 9.0 mg/kg/injection, schedule: Q04DX003 (ip), vehicle: water) was 125 % of control. For the same compound, the T/C (dose: 9.4 mg/kg/injection, schedule: Q04DX003 (ip), vehicle: water) was 144 % of control, the T/C (dose: 11.0 mg/kg/injection, schedule: Q04DX003 (ip), vehicle: water) was 140 % of control and the T/C (dose: 11.3 mg/kg/injection, schedule: Q04DX003 (ip), vehicle: water) was 126 % of control. The survivor count (dose: 12.0 mg/kg/injection, schedule: Q01DX009 (ip), vehicle: water) was 7 of 8, the T/C (dose: 12.0 mg/kg/injection, schedule: Q04DX003 (ip), vehicle: water) was 131 % of control and the T/C (dose: 12.5 mg/kg/injection, schedule: Q04DX003 (ip), vehicle: other) was 130 % of control. The T/C (dose: 12.5 mg/kg/injection, schedule: Q04DX003 (ip), vehicle: saline) was 136 % of control, the T/C (dose: 16.0 mg/kg/injection, schedule: Q04DX003 (ip), vehicle: other) was 132 % of control and the T/C (dose: 16.0 mg/kg/injection, schedule: Q04DX003 (ip), vehicle: saline) was 131 % of control. The survivor count (dose: 16.0 mg/kg/injection, schedule: Q04DX003 (ip), vehicle: water) was 3 of 6 on day 9, 5 of 6 on day 9, 6 of 6 on day 9, the T/C (dose: 18.0 mg/kg/injection, schedule: Q04DX003 (ip), vehicle: water) was 135 % of control and the T/C (dose: 18.75 mg/kg/injection, schedule: Q04DX003 (ip), vehicle: water) was 142 % of control. The T/C (dose: 20.0 mg/kg/injection, schedule: Q04DX003 (ip), vehicle: water) was 129 % of control, the T/C (dose: 24.0 mg/kg/injection, schedule: Q04DX003 (ip), vehicle: water) was 135 and 138 % of control and the T/C (dose: 25.0 mg/kg/injection, schedule: Q04DX003 (ip), vehicle: other) was 128 % of control. The T/C (dose: 30.0 mg/kg/injection, schedule: Q04DX003 (ip), vehicle: clinical formulation) was 128 % of control, the T/C (dose: 32.0 mg/kg/injection, schedule: Q04DX003 (ip), vehicle: other) was 141 % of control and the T/C [2] was 146 % of control. For the same compound, the survivor count [2] was 8 of 8, the T/C (dose: 37.5 mg/kg/injection, schedule: Q04DX003 (ip), vehicle: water) was 125 % of control and the T/C (dose: 40.0 mg/kg/injection, schedule: Q04DX003 (ip), vehicle: water) was 130 % of control. For the same compound, the T/C (dose: 44.0 mg/kg/injection, schedule: Q04DX003 (ip), vehicle: water) was 140 % of control, the T/C (dose: 45.0 mg/kg/injection, schedule: Q04DX003 (ip), vehicle: water) was 135 % of control and the survivor count (dose: 48.0 mg/kg/injection, schedule: Q04DX003 (ip), vehicle: saline) was 8 of 8. The T/C (dose: 64.0 mg/kg/injection, schedule: Q04DX003 (ip), vehicle: other) was 138 % of control, the T/C (dose: 64.0 mg/kg/injection, schedule: Q04DX003 (ip), vehicle: water) was 134 % of control and the survivor count (dose: 72.0 mg/kg/injection, schedule: Q04DX003 (ip), vehicle: saline) was 8 of 8. For the same compound, the T/C (dose: 88.0 mg/kg/injection, schedule: Q04DX003 (ip), vehicle: water) was 136 % of control, the survivor count (dose: 177.0 mg/kg/injection, schedule: Q04DX003 (ip), vehicle: other) was 7 of 8 and the T/C (dose: 180.0 mg/kg/injection, schedule: Q04DX003 (ip), vehicle: water) was 135 % of control. For the same compound, the T/C (dose: 200.0 mg/kg/injection, schedule: Q04DX003 (ip), vehicle: water) was 149 % of control, the T/C (dose: 288.0 mg/kg/injection, schedule: Q04DX003 (ip), vehicle: water) was 139 % of control and the survivor count (dose: 512.0 mg/kg/injection, schedule: Q04DX003 (ip), vehicle: other) was 3 of 6 on day 9. The survivor count (dose: 512.0 mg/kg/injection, schedule: Q04DX003 (ip), vehicle: saline) was 0 of 6.
